The source of these data is paper PMC12042775.

The chains behind the UniProt entries cited, without tags or fusion partners. Where a name states a change or a piece, a line headed by the entry shows the natural chain unless it says otherwise.
UniProt P02452: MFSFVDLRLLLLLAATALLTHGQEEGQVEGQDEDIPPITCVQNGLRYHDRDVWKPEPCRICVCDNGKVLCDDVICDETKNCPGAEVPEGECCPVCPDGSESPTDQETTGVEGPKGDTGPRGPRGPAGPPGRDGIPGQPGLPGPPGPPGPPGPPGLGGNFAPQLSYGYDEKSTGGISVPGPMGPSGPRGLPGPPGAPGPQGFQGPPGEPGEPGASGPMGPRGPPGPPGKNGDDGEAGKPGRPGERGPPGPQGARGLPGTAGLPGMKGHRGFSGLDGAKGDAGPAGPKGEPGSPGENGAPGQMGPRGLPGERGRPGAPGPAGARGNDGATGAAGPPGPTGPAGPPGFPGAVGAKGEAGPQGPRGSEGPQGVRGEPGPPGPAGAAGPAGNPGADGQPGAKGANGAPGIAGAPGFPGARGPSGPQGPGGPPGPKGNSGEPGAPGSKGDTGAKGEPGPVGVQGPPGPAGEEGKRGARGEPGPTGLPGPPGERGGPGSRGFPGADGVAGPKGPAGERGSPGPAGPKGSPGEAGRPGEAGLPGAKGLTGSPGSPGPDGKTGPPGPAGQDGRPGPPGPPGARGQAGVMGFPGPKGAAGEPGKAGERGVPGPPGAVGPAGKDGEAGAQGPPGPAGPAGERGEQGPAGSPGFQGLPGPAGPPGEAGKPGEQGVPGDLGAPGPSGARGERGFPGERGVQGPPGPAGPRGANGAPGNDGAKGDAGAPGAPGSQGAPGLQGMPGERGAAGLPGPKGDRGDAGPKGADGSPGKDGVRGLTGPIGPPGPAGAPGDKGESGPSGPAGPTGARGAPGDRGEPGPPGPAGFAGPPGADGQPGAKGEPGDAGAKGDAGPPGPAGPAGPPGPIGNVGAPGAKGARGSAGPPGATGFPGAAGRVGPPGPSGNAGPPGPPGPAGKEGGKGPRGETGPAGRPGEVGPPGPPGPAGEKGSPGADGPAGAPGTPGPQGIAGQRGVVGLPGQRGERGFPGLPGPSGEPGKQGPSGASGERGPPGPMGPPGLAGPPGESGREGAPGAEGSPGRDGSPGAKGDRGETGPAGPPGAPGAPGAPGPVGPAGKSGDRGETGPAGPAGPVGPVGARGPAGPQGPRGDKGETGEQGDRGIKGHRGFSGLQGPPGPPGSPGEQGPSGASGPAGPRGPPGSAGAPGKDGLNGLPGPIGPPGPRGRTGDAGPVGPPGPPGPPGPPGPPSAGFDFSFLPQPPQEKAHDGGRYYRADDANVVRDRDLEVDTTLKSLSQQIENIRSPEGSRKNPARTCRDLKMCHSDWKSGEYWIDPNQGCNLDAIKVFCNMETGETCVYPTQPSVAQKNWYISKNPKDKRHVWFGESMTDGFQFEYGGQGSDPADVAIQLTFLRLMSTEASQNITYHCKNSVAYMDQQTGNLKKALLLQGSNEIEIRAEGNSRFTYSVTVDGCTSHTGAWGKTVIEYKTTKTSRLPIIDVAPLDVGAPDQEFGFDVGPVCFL
UniProt P17301: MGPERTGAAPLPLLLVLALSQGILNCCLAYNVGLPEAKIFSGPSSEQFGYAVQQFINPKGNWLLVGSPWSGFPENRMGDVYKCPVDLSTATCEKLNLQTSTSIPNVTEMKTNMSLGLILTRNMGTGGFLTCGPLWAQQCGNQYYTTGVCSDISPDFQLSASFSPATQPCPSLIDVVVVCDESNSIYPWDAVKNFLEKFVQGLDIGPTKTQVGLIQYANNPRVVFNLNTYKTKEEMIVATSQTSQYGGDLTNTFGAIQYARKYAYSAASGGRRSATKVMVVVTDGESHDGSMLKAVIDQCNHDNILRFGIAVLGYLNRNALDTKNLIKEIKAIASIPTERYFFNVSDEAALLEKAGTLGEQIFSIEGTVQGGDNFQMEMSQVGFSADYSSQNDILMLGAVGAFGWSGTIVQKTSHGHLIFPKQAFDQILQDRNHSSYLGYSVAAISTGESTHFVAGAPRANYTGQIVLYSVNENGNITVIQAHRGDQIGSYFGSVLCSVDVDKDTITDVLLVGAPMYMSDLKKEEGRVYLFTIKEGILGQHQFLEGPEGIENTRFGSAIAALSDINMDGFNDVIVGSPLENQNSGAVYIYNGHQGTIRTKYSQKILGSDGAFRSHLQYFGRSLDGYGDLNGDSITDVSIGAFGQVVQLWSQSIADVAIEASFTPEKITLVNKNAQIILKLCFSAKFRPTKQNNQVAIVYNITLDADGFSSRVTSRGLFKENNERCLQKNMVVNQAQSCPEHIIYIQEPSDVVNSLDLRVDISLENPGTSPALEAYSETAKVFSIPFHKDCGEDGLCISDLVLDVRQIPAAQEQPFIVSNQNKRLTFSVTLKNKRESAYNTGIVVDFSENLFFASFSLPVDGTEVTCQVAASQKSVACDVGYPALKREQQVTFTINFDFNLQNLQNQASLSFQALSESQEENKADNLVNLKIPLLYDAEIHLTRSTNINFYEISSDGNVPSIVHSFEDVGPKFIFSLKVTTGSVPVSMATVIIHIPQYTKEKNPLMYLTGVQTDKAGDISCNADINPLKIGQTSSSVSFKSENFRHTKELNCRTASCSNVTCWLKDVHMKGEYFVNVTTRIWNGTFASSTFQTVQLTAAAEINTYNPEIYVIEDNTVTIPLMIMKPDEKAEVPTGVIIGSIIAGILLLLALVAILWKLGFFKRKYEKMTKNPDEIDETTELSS

The target of the experiment is collagen type I (Sigma-Aldrich C7774) (UniProt P02452). Kind of experiment: single-particle TIRFM count of sEVs bound to ECM-coated glass; ECM protein coated on casein-treated glass (100 μg/ml fibronectin, 50 μg/ml laminin or 100 μg/ml collagen type I, 2 h, 37°C); fluorescent sEVs (tetraspanin-Halo7 labelled) from WT, integrin-KO, α6-rescued or α6 R155A PC3 cells applied for 1 h at 37°C, washed twice with HBSS; number on casein-coated glass subtracted; only the target purified.

Results are given in words; binding and its absence hold for the method and conditions named. Some entries that bind do so weakly or less than the wild type.

“integrin α2β1 heterodimer in PC3-derived sEVs (from UniProt P17301 30-1181; P05556-1 21-798) (complex)”: the binding entry was “binds”.
